Consider one molecule from article PMC9086926 (RSC Advances, 2018).

For series [1] the following is noted: cited from earlier work.
Series [2] can be described thus: Absorptive permeability across traditional 21 day Caco-2 cell model. The conditions noted are these: human. (In general: Caco-2 monolayers are a common model of the intestinal barrier.)
Series [3] is described as follows: Absorptive permeability across 7 day fast model. The conditions noted are these: human, Caco-2.

As a reminder, the Papp A→B is how fast a substance crosses the layer from the apical side. As to `COC(=O)C1=C(C)NC(C)=C(C(=O)OC)C1c1ccccc1[N+](=O)[O-]` [Nifedipine], the “FA (human absorption fraction)” value in series [1] is on record as 100%. Moreover, the Papp A→B at 25 μM in series [2] came out at 10.7 ± 0.11 ×10⁻⁶ cm/s; in series [3], 11.7 ± 0.53 ×10⁻⁶ cm/s.
